Some of these results come from one statement about several compounds together.
Test: Short-term stability in pharmaceutical excipients over two weeks (ambient temperature and 50° C.)
Type: physicochemical
Details: two weeks at 50° C., all four vehicles
Description: Additionally, the solubility of the free base of pritelivir and its aforementioned salts in water was determined and the resulting pH was measured. […] For detection, a diode-array detector was used. Absorption was recorded at a wavelength of 300 nm. All calculations were carried out with Microsoft Excel 2010. Mean data are given as arithmetic means. Recoveries were calculated in comparison to the measured start concentration (t0).

Substance: N-methyl-N-(4-methyl-5-sulfamoylthiazol-2-yl)-2-(4-(pyridin-2-yl)phenyl)acetamide hemiethane-1,2-disulphonate [hemi ethane-1,2-disulfonate salt]
- Recoveries compared to the measured start concentration in 30% Captisol, 30% HP-beta CD, ethanol and propylene glycol: ≥ 85%
